The values below come from article PMC9600550, “The pH Robustness of Bacterial Sensing” (mBio, 2022).

This data set has as its system E6B08_RS28125. Put plainly: ITC titration of E6B08_RS28125 with L-ornithine at different pH. It is filed as binding, P. putida 1290.

Turning to `NCCC[C@H](N)C(=O)O` [L-ornithine], the “width of pH range of ligand recognition” value came to 8.0 pH units. This compound also yielded a pH optimum (25°C) of 9.0. In addition, the “pH range of binding” value (25°C, defined as binding with a KD below 1 mM) is given as 3.0-11.0.
